No constants are given. Whether binding was seen depends on the method and setting. Binding seen in cells or lysates may run through a third protein. Some binding calls cover weakened binding; strength is not graded here. For some of these results: Sequences can lack the tags named with a protein.
Key:
[1] = biological target: T1, ADNP (in HEK293T cells, partner of the β-catenin fragments) (UniProt Q9Z103); assay: co-IP; plasmids co-transfected into HEK293T cells; lysates, Dynabeads Protein G with anti-FLAG, anti-HA or anti-MYC antibody, overnight 4 °C, washes PBS 0.1% Tween
T1 sequence: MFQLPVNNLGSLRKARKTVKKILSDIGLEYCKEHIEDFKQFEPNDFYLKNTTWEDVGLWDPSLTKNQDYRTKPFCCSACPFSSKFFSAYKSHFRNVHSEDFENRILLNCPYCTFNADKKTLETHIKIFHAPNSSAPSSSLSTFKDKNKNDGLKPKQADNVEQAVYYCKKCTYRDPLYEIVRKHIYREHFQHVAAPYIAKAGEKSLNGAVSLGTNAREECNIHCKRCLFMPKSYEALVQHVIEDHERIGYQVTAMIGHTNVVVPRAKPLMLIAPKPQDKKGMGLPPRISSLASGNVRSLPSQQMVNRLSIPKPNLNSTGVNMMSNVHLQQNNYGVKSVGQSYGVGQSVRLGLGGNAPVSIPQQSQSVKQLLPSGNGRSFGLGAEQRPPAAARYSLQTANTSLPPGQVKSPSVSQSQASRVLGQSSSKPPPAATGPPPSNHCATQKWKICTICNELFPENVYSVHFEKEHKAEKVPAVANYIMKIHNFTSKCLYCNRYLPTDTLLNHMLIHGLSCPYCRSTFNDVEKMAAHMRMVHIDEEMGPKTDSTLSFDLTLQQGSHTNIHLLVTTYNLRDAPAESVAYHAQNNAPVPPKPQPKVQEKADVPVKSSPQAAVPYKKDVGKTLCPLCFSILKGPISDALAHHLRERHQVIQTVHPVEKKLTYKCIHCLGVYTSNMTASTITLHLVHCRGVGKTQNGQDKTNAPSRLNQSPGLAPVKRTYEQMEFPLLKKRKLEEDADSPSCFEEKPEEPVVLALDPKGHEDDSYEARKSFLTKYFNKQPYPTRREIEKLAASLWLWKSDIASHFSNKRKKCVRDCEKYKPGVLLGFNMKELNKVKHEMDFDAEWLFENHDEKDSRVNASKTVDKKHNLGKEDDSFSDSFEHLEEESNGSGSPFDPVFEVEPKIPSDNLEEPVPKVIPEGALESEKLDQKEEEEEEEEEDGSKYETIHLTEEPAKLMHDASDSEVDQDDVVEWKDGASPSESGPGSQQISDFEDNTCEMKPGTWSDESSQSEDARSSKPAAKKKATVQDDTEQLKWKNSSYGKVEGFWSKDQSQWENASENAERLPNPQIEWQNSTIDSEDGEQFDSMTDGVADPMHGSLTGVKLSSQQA

Amino acid sequences for entries named in this document (tags omitted). A change or cut given only in a name is not applied to a line headed by its entry.
UniProt Q02248: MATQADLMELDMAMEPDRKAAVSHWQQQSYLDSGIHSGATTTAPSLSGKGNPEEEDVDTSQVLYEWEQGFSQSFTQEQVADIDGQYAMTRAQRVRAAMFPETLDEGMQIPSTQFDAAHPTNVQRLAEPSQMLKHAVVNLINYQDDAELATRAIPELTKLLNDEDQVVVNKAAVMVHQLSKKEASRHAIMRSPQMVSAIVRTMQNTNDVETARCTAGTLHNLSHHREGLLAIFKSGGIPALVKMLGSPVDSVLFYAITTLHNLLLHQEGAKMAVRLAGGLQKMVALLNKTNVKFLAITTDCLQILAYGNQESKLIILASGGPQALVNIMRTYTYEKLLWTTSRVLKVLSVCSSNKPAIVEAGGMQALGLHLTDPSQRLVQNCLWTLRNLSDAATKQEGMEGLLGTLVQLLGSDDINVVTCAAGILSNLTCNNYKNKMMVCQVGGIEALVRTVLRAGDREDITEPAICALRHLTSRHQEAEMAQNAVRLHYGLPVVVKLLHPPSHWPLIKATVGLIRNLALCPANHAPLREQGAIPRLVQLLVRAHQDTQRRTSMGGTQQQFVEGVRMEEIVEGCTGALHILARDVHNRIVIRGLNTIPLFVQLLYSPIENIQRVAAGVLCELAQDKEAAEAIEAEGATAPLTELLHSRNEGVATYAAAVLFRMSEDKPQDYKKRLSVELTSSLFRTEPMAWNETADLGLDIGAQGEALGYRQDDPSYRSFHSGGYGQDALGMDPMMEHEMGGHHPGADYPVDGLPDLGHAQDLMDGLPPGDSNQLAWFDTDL
UniProt O15169: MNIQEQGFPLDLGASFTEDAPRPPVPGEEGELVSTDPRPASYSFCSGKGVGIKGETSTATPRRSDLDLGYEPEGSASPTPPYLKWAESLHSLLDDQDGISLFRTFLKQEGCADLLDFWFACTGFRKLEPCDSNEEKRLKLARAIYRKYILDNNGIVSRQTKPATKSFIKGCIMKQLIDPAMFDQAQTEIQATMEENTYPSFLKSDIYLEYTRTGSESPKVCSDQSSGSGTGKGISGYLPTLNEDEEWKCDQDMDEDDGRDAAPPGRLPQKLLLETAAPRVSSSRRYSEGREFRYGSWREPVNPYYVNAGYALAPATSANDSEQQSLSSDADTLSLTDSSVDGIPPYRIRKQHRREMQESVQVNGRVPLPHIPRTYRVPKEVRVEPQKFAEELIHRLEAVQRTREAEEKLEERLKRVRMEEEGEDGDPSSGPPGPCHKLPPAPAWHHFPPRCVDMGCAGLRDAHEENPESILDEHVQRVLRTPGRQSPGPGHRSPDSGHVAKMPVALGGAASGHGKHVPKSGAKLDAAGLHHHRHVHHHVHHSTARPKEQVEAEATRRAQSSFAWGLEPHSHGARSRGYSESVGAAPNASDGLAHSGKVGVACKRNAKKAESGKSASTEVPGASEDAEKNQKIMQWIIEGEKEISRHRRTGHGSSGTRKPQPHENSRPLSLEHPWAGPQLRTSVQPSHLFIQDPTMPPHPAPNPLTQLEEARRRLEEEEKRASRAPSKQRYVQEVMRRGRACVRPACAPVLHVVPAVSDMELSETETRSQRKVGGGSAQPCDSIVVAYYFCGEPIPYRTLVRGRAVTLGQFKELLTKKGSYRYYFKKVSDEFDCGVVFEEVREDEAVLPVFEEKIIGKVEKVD

FLAG-ADNP-NAP (mouse) = biological target: T2, FLAG-ADNP-NAP (mouse) (UniProt Q9Z103); assay: as above
T2 sequence: NAPVSIPQ

[2] = biological target: T3, FLAG-ADNP (1–685), in vitro synthesized (mouse) (UniProt Q9Z103); assay: co-IP; both proteins synthesized in rabbit reticulocyte lysate (TNT), 5–10 μl of each mixed in 300 μl TEN buffer, 30 min room temperature; Dynabeads protein G with anti-FLAG or anti-HA
T3 sequence: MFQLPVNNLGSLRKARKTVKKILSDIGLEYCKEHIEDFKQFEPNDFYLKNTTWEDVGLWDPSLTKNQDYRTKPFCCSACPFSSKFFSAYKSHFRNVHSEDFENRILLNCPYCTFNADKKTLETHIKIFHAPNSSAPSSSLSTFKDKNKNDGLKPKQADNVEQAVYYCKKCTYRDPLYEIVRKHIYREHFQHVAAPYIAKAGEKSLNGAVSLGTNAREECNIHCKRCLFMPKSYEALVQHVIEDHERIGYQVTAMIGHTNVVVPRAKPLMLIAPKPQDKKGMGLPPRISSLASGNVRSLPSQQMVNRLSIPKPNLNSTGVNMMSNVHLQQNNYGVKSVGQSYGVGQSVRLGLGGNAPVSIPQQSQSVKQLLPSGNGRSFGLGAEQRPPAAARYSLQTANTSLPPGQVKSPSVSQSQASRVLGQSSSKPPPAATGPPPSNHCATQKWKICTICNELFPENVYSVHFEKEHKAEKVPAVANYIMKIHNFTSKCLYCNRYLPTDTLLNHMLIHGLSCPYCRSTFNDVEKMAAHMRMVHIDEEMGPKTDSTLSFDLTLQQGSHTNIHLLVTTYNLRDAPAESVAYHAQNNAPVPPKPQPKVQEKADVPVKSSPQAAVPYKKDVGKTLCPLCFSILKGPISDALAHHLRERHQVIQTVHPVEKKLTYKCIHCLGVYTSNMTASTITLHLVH

HA-β-catenin = HA-β-catenin (UniProt Q02248); assay: co-IP; competitive protein-binding assay: increasing dose of FLAG-ADNP plasmid co-transfected with MYC-AXIN1 (or APC) and HA-β-catenin into HEK293T; lysates pulled down by HA antibody, WB
[3] = biological target: T4, ADNP (Activity Dependent Neuroprotective Protein), endogenous (mouse (endogenous in mouse R1 ESCs)) (UniProt Q9Z103); assay: co-IP; endogenous proteins; lysates of mouse ESCs and of day 3 ESC-derived neurospheres; Dynabeads Protein G with antibody or IgG, overnight 4 °C, washes PBS 0.1% Tween; IP ADNP then WB β-catenin and IP β-catenin then WB ADNP
T4 sequence: T1 sequence

3×FLAG-ADNP (mouse) = biological target: T5, 3×FLAG-ADNP (mouse) (UniProt Q9Z103); assay: co-IP; lysate of day 3 NPCs from 3×FLAG-ADNP overexpressing Adnp−/− ESCs; FLAG IP, WB β-catenin; Dynabeads Protein G
T5 sequence: T1 sequence

[4] = biological target: T6, FLAG-Adnpa (zebrafish (Danio rerio)) (UniProt F1QLG5); assay: co-IP; lysate of 24 hpf adnpa−/− adnpb−/− zebrafish embryos injected with mRNA encoding FLAG-Adnpa
T6 sequence: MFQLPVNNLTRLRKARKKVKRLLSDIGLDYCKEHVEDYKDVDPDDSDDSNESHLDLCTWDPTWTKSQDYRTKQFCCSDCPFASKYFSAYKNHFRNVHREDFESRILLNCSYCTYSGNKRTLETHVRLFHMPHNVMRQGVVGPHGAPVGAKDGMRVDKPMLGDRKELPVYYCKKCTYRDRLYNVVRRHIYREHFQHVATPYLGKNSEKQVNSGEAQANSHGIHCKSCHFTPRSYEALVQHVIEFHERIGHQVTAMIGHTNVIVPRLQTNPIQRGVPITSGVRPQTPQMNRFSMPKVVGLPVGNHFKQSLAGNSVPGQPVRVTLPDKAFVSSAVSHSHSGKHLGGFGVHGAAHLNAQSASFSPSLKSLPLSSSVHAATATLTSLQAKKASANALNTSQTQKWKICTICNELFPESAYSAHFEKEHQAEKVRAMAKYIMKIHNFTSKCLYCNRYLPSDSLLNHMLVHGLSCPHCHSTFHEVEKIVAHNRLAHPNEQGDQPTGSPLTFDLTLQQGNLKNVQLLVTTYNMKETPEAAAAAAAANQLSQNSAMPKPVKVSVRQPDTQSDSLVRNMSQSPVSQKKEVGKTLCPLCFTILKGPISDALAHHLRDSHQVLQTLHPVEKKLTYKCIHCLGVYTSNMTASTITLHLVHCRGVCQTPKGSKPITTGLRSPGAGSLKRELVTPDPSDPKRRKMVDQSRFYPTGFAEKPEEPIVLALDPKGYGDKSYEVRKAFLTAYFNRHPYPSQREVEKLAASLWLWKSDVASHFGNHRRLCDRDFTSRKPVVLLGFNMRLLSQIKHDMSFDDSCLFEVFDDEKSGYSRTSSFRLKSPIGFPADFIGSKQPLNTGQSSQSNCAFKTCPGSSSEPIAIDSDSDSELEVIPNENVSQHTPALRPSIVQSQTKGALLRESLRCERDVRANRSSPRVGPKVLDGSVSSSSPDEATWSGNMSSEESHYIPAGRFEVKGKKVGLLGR

For “FLAG-β-catenin (151–666) (from UniProt Q02248 151-666) (domain or fragment)”, the binding [1] was “binds”.

“HA-β-catenin (from UniProt Q02248 1-781)” was tested, and the binding (FLAG-ADNP-NAP (mouse)) was “binds”.

In the case of “HA-β-catenin, in vitro synthesized (from UniProt Q02248 1-781)”, the binding [2] is reported as “binds”.

In the case of MYC-AXIN1 (from UniProt O15169 1-862), the binding (HA-β-catenin) is reported as “binds”.

In the case of “β-catenin C-terminal fragment (667–781) (from UniProt Q02248 667-781) (domain or fragment)”, the binding [1] is reported as “binds weakly”.

With “β-catenin N-terminal fragment (1–150) (from UniProt Q02248 1-150) (domain or fragment)” the binding [1] was “binds weakly”.

With “β-catenin, endogenous (from UniProt Q02248 1-781)” the binding [3] was “binds” and the binding (3×FLAG-ADNP (mouse)) was “binds”.

B1: FLAG-ADNP (HEK293T) (protein, UniProt Q9Z103 1-1108)
chain: T1 sequence
In the case of B1, the binding (HA-β-catenin) is reported as “binds”.

B2: β-catenin, endogenous, zebrafish (protein, UniProt F1QGH7 1-780)
chain: MATQSDLMELEMAMDPDRKAAVSHWQQQSYLDSGIHSGATTTAPSLSGKGNPEDDDVDNQVLYEWEQGFNQSFNQEQVADIDGQYAMTRAQRVRAAMFPETLDEGMQIPSTQFDSAHPTNVQRLAEPSQMLKHAVVNLINYQDDAELATRAIPELTKLLNDEDQVVVNKAAVMVHQLSKKEASRHAIMRSPQMVSAIVRTMQNTNDVETARCTSGTLHNLSHHREGLLAIFKSGGIPALVKMLGSPVDSVLFYAITTLHNLLLHQEGAKMAVRLAGGLQKMVALLNKTNVKFLAITTDCLQILAYGNQESKLIILASGGPQALVNIMRTYTYEKLLWTTSRVLKVLSVCSSNKPAIVEAGGMQALGLHLTDPSQRLVQNCLWTLRNLSDAATKQEGMEGLLGTLVQLLGSDDINVVTCAAGILSNLTCNNYKNKMMVCQVGGIEALVRTVLRAGDREDITEPAICALRHLTSRHQDAEMAQNAVRLHYGLPVVVKLLHPPSHWPLIKATVGLIRNLALCPANHAPLREQGAIPRLVQLLVRAHQDTQRRTSMGGTQQQFVEGVRMEEIVEGCTGALHILARDIHNRIVIRGLNTIPLFVQLLYSPIENIQRVAAGVLCELAQDKEAAEAIEAEGATAPLTELLHSRNEGVATYAAAVLFRMSEDKPQDYKKRLSVELTSSLFRTEPMTWNETGDLGLDIGAQGEPLGYRQDDPSYRSFHSGGYGQDAMGMDPMMEHEMAGHHPGPDYPVDGLPDLGHTQDLIDGLPPGDSNQLAWFDTDL
With B2 the binding [4] was “binds”.

Reference: PMC7293280
